By UniProt entry, the sequences of proteins in these tests, tags left out.
UniProt Q92793: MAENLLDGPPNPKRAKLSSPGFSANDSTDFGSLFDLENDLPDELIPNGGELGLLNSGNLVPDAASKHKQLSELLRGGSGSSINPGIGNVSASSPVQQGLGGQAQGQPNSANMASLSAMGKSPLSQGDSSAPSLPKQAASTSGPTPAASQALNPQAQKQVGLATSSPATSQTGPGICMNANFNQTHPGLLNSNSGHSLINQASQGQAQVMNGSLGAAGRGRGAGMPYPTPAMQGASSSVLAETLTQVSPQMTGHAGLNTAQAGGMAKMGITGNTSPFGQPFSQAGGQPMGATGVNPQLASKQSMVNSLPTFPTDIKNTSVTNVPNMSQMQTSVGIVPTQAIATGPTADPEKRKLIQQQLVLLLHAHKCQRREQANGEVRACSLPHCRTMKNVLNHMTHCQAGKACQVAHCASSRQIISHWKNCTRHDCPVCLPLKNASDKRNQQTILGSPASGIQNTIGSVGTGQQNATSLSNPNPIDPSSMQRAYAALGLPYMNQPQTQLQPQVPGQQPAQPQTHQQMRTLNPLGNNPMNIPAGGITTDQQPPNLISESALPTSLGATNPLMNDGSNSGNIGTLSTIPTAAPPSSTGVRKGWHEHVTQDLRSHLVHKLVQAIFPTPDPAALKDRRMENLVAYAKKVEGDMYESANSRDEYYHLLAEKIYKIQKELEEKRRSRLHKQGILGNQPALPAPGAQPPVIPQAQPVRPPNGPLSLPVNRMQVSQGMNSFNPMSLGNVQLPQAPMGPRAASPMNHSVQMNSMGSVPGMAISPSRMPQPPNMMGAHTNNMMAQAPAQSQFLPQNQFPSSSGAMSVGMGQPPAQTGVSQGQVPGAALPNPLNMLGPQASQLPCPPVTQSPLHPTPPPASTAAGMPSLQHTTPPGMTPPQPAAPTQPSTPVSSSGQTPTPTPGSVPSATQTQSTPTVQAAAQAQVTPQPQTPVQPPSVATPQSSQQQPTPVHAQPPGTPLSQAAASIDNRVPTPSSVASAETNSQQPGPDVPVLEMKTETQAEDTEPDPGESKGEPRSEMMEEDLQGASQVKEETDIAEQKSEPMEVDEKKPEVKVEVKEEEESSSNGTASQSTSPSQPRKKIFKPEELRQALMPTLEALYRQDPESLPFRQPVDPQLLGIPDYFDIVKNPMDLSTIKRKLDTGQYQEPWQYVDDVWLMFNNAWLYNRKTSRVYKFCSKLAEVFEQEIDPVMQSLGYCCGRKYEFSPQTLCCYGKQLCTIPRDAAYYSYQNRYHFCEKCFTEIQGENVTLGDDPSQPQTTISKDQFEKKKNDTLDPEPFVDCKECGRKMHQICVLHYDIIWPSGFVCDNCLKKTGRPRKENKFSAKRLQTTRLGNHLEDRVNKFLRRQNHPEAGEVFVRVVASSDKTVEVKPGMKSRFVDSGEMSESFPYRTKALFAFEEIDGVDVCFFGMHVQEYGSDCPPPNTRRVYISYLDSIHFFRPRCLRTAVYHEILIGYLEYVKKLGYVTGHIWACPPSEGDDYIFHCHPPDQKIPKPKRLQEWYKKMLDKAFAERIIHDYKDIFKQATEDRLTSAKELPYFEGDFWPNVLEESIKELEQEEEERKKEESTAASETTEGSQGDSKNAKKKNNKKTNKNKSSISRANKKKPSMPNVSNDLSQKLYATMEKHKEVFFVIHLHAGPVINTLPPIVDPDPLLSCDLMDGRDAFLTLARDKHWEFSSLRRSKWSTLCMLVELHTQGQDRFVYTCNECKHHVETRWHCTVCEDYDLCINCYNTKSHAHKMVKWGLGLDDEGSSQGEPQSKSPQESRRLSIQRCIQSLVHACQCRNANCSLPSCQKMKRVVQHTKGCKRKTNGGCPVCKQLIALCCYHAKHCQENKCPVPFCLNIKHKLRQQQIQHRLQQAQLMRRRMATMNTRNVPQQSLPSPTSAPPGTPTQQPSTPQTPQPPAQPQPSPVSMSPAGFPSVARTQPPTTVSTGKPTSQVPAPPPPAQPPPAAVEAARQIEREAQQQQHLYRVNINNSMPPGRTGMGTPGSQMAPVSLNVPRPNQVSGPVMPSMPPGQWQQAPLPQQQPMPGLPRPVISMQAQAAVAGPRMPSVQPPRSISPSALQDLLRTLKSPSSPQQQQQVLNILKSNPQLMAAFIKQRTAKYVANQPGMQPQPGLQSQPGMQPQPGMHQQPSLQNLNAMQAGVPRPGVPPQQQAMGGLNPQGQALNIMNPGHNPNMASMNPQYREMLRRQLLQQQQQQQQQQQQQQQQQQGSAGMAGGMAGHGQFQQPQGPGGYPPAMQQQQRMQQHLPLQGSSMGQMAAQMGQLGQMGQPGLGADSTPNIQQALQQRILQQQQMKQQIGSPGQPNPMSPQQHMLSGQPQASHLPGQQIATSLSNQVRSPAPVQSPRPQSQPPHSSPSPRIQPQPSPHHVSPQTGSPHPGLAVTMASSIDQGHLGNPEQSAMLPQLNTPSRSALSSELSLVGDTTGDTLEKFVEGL
UniProt Q92908: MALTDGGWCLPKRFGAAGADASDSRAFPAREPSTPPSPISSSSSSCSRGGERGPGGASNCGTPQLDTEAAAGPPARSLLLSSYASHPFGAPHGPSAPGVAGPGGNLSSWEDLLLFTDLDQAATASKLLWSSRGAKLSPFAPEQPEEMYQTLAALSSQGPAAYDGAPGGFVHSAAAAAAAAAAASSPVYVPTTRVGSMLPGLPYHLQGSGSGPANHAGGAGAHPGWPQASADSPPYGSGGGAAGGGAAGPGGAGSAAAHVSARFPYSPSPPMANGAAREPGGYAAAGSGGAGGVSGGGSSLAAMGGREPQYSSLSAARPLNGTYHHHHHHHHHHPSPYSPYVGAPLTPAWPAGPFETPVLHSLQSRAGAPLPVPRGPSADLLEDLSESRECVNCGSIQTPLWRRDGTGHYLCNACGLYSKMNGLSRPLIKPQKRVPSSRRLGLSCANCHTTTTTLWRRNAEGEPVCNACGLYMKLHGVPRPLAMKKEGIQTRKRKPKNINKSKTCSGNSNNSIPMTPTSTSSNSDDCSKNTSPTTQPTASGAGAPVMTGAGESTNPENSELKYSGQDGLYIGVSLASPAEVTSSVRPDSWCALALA
UniProt O75376: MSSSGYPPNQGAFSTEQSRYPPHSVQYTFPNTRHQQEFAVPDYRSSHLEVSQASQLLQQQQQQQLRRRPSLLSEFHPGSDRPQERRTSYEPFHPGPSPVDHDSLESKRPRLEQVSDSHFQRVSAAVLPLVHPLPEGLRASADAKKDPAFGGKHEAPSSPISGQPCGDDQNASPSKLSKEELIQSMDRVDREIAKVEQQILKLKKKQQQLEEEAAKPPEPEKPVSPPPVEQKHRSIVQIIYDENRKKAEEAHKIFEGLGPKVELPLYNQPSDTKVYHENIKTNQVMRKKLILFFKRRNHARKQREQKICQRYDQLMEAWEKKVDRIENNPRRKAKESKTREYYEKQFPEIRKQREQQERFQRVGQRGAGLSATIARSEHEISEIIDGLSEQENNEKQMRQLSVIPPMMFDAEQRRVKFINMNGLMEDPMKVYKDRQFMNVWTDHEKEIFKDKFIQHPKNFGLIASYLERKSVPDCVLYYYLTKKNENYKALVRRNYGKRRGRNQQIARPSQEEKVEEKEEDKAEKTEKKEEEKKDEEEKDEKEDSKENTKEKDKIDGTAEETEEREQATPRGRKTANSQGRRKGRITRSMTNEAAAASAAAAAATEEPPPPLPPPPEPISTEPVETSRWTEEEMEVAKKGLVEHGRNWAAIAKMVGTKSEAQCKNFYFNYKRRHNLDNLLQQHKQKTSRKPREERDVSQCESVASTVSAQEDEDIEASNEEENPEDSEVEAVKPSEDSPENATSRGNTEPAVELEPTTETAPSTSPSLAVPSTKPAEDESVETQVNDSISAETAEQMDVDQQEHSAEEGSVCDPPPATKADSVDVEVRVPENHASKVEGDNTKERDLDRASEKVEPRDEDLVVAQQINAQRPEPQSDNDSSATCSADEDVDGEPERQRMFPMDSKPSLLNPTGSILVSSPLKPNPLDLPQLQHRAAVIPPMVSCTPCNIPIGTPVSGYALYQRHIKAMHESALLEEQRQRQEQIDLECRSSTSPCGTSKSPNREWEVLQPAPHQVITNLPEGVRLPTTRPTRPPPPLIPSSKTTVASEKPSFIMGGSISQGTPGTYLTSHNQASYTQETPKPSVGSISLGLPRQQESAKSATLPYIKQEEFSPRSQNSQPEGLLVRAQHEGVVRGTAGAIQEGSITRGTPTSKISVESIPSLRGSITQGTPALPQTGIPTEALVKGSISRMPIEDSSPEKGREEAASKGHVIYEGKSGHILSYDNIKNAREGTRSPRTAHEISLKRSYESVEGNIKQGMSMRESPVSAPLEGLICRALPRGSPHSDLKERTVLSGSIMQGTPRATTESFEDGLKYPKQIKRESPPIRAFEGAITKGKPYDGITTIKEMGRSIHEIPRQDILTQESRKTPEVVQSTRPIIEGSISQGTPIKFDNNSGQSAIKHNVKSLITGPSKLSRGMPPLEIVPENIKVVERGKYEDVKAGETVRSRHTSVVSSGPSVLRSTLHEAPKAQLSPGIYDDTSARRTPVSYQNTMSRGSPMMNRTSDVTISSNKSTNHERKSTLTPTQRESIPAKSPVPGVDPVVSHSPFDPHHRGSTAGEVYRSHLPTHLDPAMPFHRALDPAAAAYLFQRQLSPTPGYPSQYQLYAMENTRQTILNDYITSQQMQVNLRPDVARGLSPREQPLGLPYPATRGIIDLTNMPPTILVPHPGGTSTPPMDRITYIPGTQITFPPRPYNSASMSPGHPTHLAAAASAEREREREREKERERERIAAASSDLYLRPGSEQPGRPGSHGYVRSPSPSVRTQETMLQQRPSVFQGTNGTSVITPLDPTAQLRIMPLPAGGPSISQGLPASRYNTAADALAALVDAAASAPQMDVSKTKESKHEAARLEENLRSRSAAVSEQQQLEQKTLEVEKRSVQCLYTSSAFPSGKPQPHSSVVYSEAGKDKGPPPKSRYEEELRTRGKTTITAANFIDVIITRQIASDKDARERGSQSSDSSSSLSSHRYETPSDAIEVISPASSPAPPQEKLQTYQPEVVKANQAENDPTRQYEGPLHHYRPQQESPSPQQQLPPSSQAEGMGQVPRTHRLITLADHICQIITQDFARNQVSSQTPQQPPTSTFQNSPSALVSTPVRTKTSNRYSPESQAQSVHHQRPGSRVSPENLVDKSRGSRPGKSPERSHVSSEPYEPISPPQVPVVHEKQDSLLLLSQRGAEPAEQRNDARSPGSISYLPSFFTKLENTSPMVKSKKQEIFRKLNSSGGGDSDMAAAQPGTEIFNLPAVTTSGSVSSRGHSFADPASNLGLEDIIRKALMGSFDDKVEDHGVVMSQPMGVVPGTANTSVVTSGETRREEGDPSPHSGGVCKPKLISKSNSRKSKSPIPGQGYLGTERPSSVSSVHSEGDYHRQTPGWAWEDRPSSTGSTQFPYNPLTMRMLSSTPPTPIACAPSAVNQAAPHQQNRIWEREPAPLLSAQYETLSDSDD
UniProt Q99873: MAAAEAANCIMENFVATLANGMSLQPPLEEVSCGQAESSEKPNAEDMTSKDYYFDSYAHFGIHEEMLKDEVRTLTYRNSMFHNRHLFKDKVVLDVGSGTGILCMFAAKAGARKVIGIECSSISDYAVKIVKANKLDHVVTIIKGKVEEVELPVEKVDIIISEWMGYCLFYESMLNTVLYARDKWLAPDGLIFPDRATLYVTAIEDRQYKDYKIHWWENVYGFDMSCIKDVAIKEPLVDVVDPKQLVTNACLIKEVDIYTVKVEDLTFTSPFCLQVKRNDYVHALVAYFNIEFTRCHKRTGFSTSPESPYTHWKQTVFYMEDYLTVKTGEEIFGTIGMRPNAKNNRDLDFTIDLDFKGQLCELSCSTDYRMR

According to publication PMC12695649:

Tests used:
[1] = target: T1, FOXA1 (human (endogenous in HPAF-II, AsPC-1, Miapaca-2)) (UniProt P55317); assay: affinity purification with mass spectrometry; RIME: cells cross-linked with 2 mM DSG and 1% formaldehyde, chromatin sonicated, endogenous FOXA1 immunoprecipitated overnight (Abcam ab5089 on Dynabeads), ten washes in RIPA buffer, LC-MS/MS, label-free quantification; HPAF-II, AsPC-1 and Miapaca-2 cells; three biological replicates and one pooled IgG control
T1 sequence: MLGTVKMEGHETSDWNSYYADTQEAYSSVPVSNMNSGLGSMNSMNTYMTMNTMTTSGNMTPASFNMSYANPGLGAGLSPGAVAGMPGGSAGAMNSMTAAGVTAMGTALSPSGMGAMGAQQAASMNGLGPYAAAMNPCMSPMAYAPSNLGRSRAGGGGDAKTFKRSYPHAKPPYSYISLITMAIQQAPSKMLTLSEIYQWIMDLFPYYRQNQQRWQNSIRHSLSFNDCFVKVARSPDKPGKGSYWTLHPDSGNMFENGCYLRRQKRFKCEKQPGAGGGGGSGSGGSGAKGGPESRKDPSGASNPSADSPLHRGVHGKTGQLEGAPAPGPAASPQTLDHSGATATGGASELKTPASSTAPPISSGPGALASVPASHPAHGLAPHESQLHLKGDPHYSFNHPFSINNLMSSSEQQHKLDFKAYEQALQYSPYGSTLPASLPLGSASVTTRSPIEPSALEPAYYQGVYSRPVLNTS

[2] = target: T2, HNF4G (human (endogenous in HPAF-II, AsPC-1)) (UniProt Q14541); assay: affinity purification with mass spectrometry; quantitative RIME data re-examined; the bait that gave the result for HNF4G is not told (Fig. 3a shows FOXA1-RIME in HPAF-II; an HNF4G antibody is listed in the RIME methods)
T2 sequence: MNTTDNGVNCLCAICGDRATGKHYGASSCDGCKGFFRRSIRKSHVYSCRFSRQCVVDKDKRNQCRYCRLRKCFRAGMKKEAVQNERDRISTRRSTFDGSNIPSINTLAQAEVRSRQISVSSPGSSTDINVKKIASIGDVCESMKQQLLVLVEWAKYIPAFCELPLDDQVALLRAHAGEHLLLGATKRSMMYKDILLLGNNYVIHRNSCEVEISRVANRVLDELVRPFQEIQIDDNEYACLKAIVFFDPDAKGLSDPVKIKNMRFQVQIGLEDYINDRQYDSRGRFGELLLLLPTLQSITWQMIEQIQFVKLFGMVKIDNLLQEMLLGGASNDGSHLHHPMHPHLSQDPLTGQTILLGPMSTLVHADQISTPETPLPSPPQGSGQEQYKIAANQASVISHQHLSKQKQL

Row | binding [1] | binding [2] | Substance
1 | binds |  | CBP (from UniProt Q92793 1-2442)
2 | binds |  | GATA6 (from UniProt Q92908 1-595)
3 | binds |  | NCOA3 (from UniProt Q9Y6Q9 1-1424)
4 | binds |  | NCOR1 (from UniProt O75376 1-2440)
5 | binds | binds | protein arginine methyltransferase (PRMT1) (from UniProt Q99873 1-371) (enzyme)

Results are given in words; binding and its absence hold for the method and conditions named. Binding seen in cells or lysates may run through a third protein. A yes stands for co-enrichment or nearness to the bait. Other partners may have been found.
